Binding data for one substance are collected here from PMC10725505, “Molecular forms of BMP15 and GDF9 in mammalian species that differ in litter size” (Scientific Reports, 2023).

The target of the assay is T1, recombinant human (h)BMPR2 ectodomain (human) (UniProt Q13873).
T1 sequence (chain, N-biotinylated using EZ-Link sulfo-NHS-LC-biotin (1,1.2 molar ratio)): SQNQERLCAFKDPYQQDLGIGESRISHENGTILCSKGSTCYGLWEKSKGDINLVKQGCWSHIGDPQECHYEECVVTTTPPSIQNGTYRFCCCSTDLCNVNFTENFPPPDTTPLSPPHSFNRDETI
The experiment in a line: SPR; ProteOn XPR36; biotinylated hBMPR2 captured (~200 RU) on a streptavidin-coated GLC chip; log2 serial dilutions of partially purified (dialysed, concentrated) 293H-secreted GDF9 or BMP15 as analytes; 25 °C, 100 µl/min; 10 mM HEPES, 500 mM NaCl, 3.4 mM EDTA, 0.005% Tween 20; association 120 s; analyte concentrations not known; only the target purified. (In general: SPR reads the build-up and loss of mass on a sensor chip optically.)

Results are given in words; binding and its absence hold for the method and conditions named. Binding calls can cover weak binding; strength is not graded here.

On to recombinant red deer GDF9 (ligand), for which the binding entry was “binds”.
